The supplement of paper PMC10849652
The other results are listed elsewhere or left out.

Chains of the proteins cited; added tags and fusions are not shown. Lines headed by an entry give the natural chain unless they say otherwise; changes in a name come on top.
UniProt Q15291, whole entry, looked up: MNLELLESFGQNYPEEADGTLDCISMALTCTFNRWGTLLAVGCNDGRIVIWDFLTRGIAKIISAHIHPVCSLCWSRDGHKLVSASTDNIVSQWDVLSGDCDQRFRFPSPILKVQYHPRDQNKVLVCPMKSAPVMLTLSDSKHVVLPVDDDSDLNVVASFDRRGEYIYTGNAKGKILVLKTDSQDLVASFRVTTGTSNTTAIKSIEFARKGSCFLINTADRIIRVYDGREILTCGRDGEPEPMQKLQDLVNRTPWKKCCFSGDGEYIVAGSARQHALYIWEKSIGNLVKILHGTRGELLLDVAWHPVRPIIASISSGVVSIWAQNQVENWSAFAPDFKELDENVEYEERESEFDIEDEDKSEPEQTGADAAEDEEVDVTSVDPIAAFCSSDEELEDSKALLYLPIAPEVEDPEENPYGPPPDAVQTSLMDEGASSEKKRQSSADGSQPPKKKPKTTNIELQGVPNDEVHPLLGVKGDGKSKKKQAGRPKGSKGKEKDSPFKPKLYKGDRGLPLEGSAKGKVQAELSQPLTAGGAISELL
UniProt Q9Y4C8: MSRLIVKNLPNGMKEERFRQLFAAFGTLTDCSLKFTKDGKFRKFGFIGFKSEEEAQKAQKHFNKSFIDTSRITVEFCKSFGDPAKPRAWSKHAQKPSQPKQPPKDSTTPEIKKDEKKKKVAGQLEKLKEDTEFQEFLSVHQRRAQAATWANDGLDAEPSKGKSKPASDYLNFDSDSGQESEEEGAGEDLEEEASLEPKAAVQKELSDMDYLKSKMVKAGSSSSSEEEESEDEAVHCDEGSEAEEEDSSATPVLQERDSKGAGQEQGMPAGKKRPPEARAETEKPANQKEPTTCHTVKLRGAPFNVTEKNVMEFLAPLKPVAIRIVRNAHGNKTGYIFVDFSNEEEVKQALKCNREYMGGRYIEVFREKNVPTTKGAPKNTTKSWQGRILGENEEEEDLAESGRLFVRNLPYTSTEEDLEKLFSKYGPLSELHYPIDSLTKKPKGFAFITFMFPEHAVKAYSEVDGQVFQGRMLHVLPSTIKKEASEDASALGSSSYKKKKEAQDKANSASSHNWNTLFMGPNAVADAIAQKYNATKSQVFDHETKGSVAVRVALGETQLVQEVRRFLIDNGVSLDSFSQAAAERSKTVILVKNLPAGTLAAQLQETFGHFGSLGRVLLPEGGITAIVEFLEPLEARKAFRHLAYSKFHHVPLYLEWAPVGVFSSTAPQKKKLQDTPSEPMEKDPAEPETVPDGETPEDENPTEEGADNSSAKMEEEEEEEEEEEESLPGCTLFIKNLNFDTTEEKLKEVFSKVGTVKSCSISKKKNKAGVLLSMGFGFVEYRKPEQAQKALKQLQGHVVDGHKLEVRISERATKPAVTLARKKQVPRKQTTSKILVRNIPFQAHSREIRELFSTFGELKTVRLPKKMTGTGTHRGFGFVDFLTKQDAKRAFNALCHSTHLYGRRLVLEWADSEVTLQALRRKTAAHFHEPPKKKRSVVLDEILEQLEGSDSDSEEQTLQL
UniProt P42696: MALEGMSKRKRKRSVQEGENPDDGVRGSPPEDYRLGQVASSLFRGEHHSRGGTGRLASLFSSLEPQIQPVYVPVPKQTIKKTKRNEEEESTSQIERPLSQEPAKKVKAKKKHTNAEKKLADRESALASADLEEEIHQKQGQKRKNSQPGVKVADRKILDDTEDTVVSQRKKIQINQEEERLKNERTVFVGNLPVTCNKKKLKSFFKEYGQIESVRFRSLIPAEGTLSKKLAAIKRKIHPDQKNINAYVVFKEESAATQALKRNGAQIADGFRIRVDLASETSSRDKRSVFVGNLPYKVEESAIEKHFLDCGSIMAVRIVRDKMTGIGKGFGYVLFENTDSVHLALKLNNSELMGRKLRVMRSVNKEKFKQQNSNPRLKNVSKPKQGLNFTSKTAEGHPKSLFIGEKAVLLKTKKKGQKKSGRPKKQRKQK
UniProt Q04864: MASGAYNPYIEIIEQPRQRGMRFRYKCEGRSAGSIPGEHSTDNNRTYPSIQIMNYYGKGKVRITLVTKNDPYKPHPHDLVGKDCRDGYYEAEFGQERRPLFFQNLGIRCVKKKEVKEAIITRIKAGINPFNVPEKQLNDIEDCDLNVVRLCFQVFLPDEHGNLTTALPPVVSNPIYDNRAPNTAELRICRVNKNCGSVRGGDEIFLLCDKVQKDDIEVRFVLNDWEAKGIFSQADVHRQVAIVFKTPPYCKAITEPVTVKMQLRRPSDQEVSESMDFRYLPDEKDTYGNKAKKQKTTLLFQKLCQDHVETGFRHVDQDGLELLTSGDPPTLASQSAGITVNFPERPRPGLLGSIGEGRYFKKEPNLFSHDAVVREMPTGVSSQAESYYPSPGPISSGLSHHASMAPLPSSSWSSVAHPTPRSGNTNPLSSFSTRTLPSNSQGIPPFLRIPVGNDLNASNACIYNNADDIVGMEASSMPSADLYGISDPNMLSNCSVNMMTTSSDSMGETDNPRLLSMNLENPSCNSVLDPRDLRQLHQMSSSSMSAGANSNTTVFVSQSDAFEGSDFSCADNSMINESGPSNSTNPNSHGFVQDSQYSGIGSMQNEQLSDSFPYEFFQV
UniProt P28749: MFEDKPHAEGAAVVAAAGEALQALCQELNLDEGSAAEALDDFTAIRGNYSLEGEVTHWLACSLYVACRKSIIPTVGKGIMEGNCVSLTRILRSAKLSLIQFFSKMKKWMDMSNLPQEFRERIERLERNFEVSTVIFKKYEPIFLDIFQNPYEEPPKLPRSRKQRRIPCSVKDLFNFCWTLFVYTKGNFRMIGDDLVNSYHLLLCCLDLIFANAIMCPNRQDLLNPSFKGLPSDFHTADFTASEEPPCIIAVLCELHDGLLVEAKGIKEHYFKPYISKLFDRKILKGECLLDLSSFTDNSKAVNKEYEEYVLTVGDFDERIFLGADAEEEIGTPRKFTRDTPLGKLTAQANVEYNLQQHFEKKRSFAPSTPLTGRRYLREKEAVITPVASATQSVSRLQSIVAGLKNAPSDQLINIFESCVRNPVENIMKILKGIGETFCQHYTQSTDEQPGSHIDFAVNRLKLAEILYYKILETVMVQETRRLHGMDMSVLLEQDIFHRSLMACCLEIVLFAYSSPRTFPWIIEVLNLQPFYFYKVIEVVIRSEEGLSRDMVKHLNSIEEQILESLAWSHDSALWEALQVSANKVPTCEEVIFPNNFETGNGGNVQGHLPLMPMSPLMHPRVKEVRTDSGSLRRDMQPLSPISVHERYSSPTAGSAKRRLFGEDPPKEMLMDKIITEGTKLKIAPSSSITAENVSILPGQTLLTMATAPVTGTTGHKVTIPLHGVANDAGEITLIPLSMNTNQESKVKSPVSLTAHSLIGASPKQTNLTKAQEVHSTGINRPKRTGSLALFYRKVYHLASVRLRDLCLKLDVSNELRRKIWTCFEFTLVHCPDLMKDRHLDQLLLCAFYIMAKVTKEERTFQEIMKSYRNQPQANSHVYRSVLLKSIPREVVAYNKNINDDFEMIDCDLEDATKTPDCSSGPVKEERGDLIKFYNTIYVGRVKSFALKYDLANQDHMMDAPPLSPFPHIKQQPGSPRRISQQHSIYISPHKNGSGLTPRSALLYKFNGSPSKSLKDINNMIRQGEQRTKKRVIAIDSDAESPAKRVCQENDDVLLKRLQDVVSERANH
UniProt Q9H1K0: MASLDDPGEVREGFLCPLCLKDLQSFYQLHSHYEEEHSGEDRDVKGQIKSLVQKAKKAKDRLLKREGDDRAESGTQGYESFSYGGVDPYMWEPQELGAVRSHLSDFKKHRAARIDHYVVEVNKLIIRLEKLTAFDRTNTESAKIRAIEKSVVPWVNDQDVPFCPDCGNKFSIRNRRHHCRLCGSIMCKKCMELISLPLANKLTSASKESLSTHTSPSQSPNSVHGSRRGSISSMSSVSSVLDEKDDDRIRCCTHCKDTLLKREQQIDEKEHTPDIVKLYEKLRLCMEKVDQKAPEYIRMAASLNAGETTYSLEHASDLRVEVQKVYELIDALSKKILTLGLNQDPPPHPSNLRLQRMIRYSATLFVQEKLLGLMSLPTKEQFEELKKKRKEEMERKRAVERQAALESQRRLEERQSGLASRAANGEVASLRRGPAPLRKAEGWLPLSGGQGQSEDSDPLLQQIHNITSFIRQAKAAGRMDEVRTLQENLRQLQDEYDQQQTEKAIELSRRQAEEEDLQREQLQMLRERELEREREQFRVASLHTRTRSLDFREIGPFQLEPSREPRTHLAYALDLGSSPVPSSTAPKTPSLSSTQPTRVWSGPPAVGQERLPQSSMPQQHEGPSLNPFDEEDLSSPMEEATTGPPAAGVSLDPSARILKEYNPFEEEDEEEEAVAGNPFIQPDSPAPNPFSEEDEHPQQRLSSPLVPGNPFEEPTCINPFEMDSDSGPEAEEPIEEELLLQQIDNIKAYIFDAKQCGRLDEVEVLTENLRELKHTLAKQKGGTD
UniProt Q9P258, whole entry, looked up: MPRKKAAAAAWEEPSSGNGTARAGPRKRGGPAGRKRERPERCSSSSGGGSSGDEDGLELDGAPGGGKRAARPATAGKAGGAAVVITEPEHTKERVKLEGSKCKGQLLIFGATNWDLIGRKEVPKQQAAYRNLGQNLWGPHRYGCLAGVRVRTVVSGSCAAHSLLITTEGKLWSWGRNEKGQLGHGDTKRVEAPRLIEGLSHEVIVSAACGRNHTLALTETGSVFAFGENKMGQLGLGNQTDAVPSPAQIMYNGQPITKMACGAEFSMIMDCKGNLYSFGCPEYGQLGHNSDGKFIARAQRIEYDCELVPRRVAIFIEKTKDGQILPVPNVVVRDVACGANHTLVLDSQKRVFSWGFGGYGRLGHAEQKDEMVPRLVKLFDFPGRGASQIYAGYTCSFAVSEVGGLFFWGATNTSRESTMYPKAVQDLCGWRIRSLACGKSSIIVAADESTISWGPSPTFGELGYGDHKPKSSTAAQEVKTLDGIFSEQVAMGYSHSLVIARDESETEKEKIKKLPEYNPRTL
UniProt Q14257: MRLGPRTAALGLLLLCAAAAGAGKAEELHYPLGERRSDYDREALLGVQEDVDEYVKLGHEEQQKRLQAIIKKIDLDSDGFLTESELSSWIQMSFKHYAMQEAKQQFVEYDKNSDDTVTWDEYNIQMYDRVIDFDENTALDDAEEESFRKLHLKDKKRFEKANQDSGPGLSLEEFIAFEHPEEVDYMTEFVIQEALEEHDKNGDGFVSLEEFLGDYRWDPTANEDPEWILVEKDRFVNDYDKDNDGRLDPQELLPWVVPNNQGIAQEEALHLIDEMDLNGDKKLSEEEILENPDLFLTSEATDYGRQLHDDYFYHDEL
UniProt P53805: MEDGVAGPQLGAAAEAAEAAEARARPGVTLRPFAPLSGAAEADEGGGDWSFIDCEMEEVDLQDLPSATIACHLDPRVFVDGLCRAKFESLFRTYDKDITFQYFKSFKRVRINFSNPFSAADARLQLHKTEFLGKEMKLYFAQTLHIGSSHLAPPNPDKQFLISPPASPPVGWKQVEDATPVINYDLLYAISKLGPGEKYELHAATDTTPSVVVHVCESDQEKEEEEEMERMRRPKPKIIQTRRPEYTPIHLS
UniProt Q96D15: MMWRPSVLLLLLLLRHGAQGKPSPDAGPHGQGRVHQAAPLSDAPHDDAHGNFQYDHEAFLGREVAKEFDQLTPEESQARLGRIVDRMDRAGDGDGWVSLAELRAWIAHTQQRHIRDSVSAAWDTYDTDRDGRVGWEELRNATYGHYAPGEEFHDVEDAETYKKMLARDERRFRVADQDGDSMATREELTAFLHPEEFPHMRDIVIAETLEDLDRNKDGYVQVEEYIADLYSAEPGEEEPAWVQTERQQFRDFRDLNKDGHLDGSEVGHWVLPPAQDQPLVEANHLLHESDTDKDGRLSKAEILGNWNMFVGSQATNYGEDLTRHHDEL
UniProt Q09028, whole entry, looked up: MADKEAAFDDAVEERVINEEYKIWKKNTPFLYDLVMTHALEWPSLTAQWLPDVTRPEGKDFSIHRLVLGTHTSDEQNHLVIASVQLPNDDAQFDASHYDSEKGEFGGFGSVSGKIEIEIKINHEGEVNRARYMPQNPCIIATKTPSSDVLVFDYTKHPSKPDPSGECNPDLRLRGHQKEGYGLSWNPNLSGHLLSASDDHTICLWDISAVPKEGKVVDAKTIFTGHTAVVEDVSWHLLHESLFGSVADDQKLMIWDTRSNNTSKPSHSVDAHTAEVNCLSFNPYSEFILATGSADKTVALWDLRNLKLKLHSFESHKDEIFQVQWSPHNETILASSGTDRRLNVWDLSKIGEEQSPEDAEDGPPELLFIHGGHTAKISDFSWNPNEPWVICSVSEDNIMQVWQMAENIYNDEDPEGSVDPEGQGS

Columns and labels:
Assay in all cases: log2 fold change, soluble protein after heating vs DMSO (PISA); higher = thermal stabilisation; K562 lysate, 10 uM; active = over 0.2 and 3.5 SD of the protein, either way, in both replicates (recomputed)
[1] = compound: CCCS(=O)(=O)Nc1ccc(F)c(C(=O)c2c[nH]c3ncc(-c4ccc(Cl)cc4)cc23)c1F [vemurafenib]
In short: (§1)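 A 30 min treatment with 10 μM compound was applied to crude K562 extract at 1 mg/mL protein in PBS pH 7.4 with 1 mM MgCl2. Heating for 3 min spanned 48°C-58°C, after which aliquots were pooled, adjusted to 0.5% NP-40 at 4°C and spun at 21,000xg for 90 min. TMTpro 16plex LC-MS/MS of the supernatant, with channel sums equalised, gave values recorded as log-two fold change in thermal stability against solvent controls, from duplicates.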

[2] = compound: CCCS(=O)(=O)Nc1ccc(F)c(C(=O)c2c[nH]c3ncc(Cl)cc23)c1F
In short: as §1

[3] = compound: CCN(CCCOc1ccc2c(Nc3cc(CC(=O)Nc4cccc(F)c4)[nH]n3)ncnc2c1)CCOP(=O)(O)O [barasertib]
In short: as §1

[4] = compound: CC[C@@H]1C(=O)N(C)c2cnc(Nc3ccc(C(=O)NC4CCN(C)CC4)cc3OC)nc2N1C1CCCC1
In short: as §1

[5] = compound: CC[C@@H]1C(=O)N(C)c2cnc(Nc3ccc(C(=O)N[C@H]4CC[C@H](N5CCN(CC6CC6)CC5)CC4)cc3OC)nc2N1C(C)C [volasertib]
In short: as §1

[6] = compound: CCn1c(C(=O)N(C2CC2)C2CC2)cc2c3c(ncn3C)c(Nc3cc(C)n(C)n3)nc21
In short: as §1

[7] = compound: CCn1cc(-c2ccnc3[nH]c(-c4cccc(CN(C)C)c4)cc23)c(-c2ccc(NC(=O)N(C)C)cc2)n1
In short: as §1

[8] = compound: CN1CCC(CNc2ccc3ncc(-c4cccc(OC(F)(F)F)c4)n3n2)CC1
In short: as §1

[9] = compound: CN1CCN(CCOc2cc(OC3CCOCC3)c3c(Nc4c(Cl)ccc5c4OCO5)ncnc3c2)CC1 [saracatinib]
In short: as §1

[10] = compound: CN1CCN(c2nc(C3=C(c4c[nH]c5ccccc45)C(=O)NC3=O)c3ccccc3n2)CC1 [sotrastaurin]
In short: as §1

Measured: log2 fold change

RBBP5 (UniProt Q15291)
inactive: [1] -0.03 | [2] 0.014 | [3] -0.009 | [4] 0.051 | [5] 0.018 | [6] -0.029 | [7] 0.002 | [8] 0.013 | [9] -0.03 | [10] 0.032

RCC1L (UniProt Q96I51)
inactive: [1] 0.002 | [2] 0.028 | [3] 0.018 | [4] -0.033 | [5] -0.006 | [6] 0.002 | [7] -0.016 | [8] 0.048 | [9] -0.029 | [10] 0.012

RBM19 (UniProt Q9Y4C8)
inactive: [1] 0 | [2] 0.022 | [3] 0.115 | [4] -0.002 | [5] 0.105 | [6] -0.093 | [7] -0.035 | [8] 0.067 | [9] -0.084 | [10] -0.026

RBM34 (UniProt P42696)
inactive: [1] -0.038 | [2] 0.038 | [3] 0.054 | [4] -0.046 | [5] -0.026 | [6] -0.032 | [7] 0.008 | [8] -0.07 | [9] 0.007 | [10] -0.018

REL isoform 2 (UniProt Q04864)
inactive: [1] -0.035 | [2] 0.017 | [3] 0.033 | [4] 0.049 | [5] -0.032 | [6] 0.025 | [7] 0.02 | [8] -0.174 | [9] -0.002 | [10] -0.022

RB1 (UniProt P06400)
inactive: [1] 0.003 | [2] 0.013 | [3] 0.038 | [4] 0.031 | [5] -0.006 | [6] 0.003 | [7] -0.039 | [8] 0.029 | [9] 0.007 | [10] 0.014

RBL1 (UniProt P28749)
inactive: [1] 0.084 | [2] 0.082 | [3] 0.049 | [4] 0.061 | [5] 0.006 | [6] 0 | [7] -0.034 | [8] 0.091 | [9] -0.118 | [10] -0.084

RBM25 (UniProt P49756)
inactive: [1] -0.008 | [2] -0.004 | [3] 0.029 | [4] 0.099 | [5] 0.001 | [6] 0.045 | [7] -0.013 | [8] 0.018 | [9] 0.009 | [10] -0.036

RBSN (UniProt Q9H1K0)
inactive: [1] 0.051 | [2] 0.01 | [3] 0.023 | [4] 0.035 | [5] -0.087 | [6] 0.006 | [7] -0.075 | [8] 0.038 | [9] 0.023 | [10] -0.019

RAPGEF5, A0A590UJR0
inactive: [1] 0.138 | [2] -0.116 | [3] -0.003 | [4] 0.189 | [5] 0.009 | [6] 0 | [7] -0.15 | [8] 0.038 | [9] 0.001 | [10] -0.015

RCC2 (UniProt Q9P258)
inactive: [1] -0.014 | [2] -0.015 | [3] -0.019 | [4] -0.071 | [5] -0.018 | [6] 0.028 | [7] 0.001 | [8] -0.011 | [9] 0.007 | [10] 0.002

RCN2 isoform 2 (UniProt Q14257)
inactive: [1] -0.032 | [2] 0.004 | [3] -0.022 | [4] -0.046 | [5] 0.002 | [6] -0.033 | [7] 0.061 | [8] -0.013 | [9] -0.002 | [10] 0.019

RCAN1 (UniProt P53805)
inactive: [1] 0.028 | [2] 0.061 | [3] 0.034 | [4] -0.022 | [5] -0.026 | [6] -0.06 | [7] -0.024 | [8] 0.041 | [9] 0.025 | [10] -0.056

Taken from above (2 entries):
RBSN (UniProt Q9H1K0)
inactive: [1] 0.051 | [2] 0.01 | [3] 0.023 | [4] 0.035 | [5] -0.087 | [6] 0.006 | [7] -0.075 | [8] 0.038 | [9] 0.023 | [10] -0.019

RAPGEF5, A0A590UJR0
inactive: [1] 0.138 | [2] -0.116 | [3] -0.003 | [4] 0.189 | [5] 0.009 | [6] 0 | [7] -0.15 | [8] 0.038 | [9] 0.001 | [10] -0.015

Additional results follow:

RCN3 (UniProt Q96D15)
inactive: [1] 0.038 | [2] 0.084 | [3] 0.07 | [4] -0.009 | [5] -0.015 | [6] 0.008 | [7] -0.126 | [8] 0.091 | [9] 0.033 | [10] -0.09

RBBP4 (UniProt Q09028)
inactive: [1] 0.014 | [2] 0.037 | [3] -0.007 | [4] -0.001 | [5] 0.014 | [6] -0.02 | [7] -0.128 | [8] 0.1 | [9] -0.006 | [10] -0.052
